≈ marks a conversion by molar mass, not a printed value.
Tested on: Candida albicans (ATCC 10231, yeast)
Test: MIC by microdilution assay, planktonic C. albicans
Conditions: ATCC10231, 24 h, read-out: MIC against C. albicans, planktonic C. albicans, 22° C., 24 hours

Row | SMILES | MIC [µg/mL]
1 | C[C@@H]1[C@H](O)[C@@H](C)/C=C/C=C/C=C/C=C/C=C/C=C/C=C/[C@H](O[C@@H]2O[C@H](C)[C@@H](O)[C@H](N)[C@@H]2O)C[C@@H]2O[C@](O)(C[C@@H](O)C[C@@H](O)[C@H](O)CC[C@@H](O)C[C@@H](O)CC(=O)O[C@H]1C)C[C@H](O)[C@H]2C(=O)O [amphotericin B] | 3.9 (≈ 4.22 µM)
2 | OC(Cn1cncn1)(Cn1cncn1)c1ccc(F)cc1F [fluconazole] | > 125

Source: patent US9802902B2, “Antifungal compound” (priority 2012, dated 2017)
